For experiment [1], the system named is Vesicular stomatitis virus. The experiment is described as follows: Antiviral activity against Vesicular stomatitis virus G pseudoparticle infected in human Huh7.5.1 cells at 1 uM after 4 hrs by luciferase reporter gene assay. Format: functional. Conditions: Huh-7, 4 h.
For another experiment, the system named is Murine leukemia virus. The experiment can be described thus: Antiviral activity against Murine leukemia virus pseudoparticle infected in human Huh7.5.1 cells at 1 uM after 4 hrs by luciferase reporter gene assay. Conditions: Huh-7, 4 h. Format: functional. Background: In a reporter assay the amount or activity of a reporter protein is the signal.

Molecules are shown by their SMILES.

The term inhibition denotes the change of the read-out against control, counted positive when it falls. For the compound `Clc1ccc(C(c2ccc(Cl)cc2)N2CCNCC2)cc1`, the inhibition at 1 µM in experiment [1] was determined as 115%; with Murine leukemia virus, 120%.

The values are drawn from ChEMBL document CHEMBL3769315 (J Med Chem, 2016).
